Experimental data taken from patent US11339128B2 (Firmenich Incorporated, priority 2014, dated 2022).
Some of these results come from one statement about several compounds together.

Columns and labels:
[1] = Sensory test of inherent sweetness of the compounds; type: in vivo, human; conditions: compound alone at 10 ppm
[2] = Sensory paired-comparison sweetness test of sweetener (sucrose or high-fructose corn syrup) with test compound; type: in vivo, human; conditions: test compound 10 ppm or less with 6% HFCS, low sodium buffer pH 2.8
Experimental: Test samples containing either a sweetener (sucrose or high-fructose corn syrup) alone or in combination with a test compound were presented in pairs to a group of panelist who were asked to determine which of the samples was sweeter. Subjects refrained from eating or drinking (except water) for at least 1 hour prior to the test. Subjects rinsed with water several times to clean the mouth. The samples within a paired comparison test were presented in a randomized, counterbalanced order. Panelists had up to a 1 minute delay between taste tests to clear the mouth of any tastes. Binomial probability tables were used to determine the probability of the correct number of responses occurring for each test at alpha-0.05.
Stock solutions of test compounds were prepared at 1000× final concentration with ethanol to ensure dispersion in solution. Test compound samples including sucrose were prepared by diluting the stock solutions in a low sodium buffer (0.952 g of KCl, 5.444 g of Na2HPO4, and 0.952 g of KH2PO4 in deionized ultrafiltered water) at pH 7.1 and containing sucrose. Test compound samples including high fructose corn syrup were prepared by diluting the stock solutions in the low sodium buffer at pH 2.8 (using citric acid to adjust the pH) and containing high fructose corn syrup. Control samples were balanced to 0.1% ethanol final.
In samples containing the test compound, the test compound was present at a concentration of 10 ppm or less and the concentration of sucrose was 6%. This table indicates the sucrose-alone concentration having a perceived sweetness intensity equivalent to the sweetness intensity of the combination of test compound and sucrose. An “A” value indicates an equivalent sucrose concentration greater than 6% and less than 10%. A “B” value indicates an equivalent sucrose concentration of 10% or greater. […]

SMILES	inherent sweetness intensity, compared with that of a sucrose solution [1] [% sucrose solution]	HFCS-alone concentration having equivalent perceived sweetness intensity [2]
CCc1nc2cccc(O[C@H]3CC[C@H](C)CC3)c2c(N)c1C(=O)O [Compound 201]	< 1.5	–
CCOCC(=O)N[C@H]1CC[C@H](Oc2cccc3nc(C)c(C(=O)O)c(N)c23)CC1 [Compound 300, 4-Amino-5-((trans-4-(2-ethoxyacetamido)cyclohexyl)oxy)-2-methylquinoline-3-carboxylic acid]	< 1.5	–
CCCOCC(=O)N[C@H]1CC[C@H](Oc2cccc3nc(C)c(C(=O)O)c(N)c23)CC1 [Compound 305]	< 1.5	–
Cc1nc2cccc(O[C@H]3CC[C@H](NC(=O)COC(C)C)CC3)c2c(N)c1C(=O)O [Compound 306]	< 1.5	greater than 6%
Cc1nc2cccc(O[C@H]3CC[C@H](NC(=O)COCC(C)C)CC3)c2c(N)c1C(=O)O [Compound 307]	< 1.5	greater than 6%
Cc1nc2cccc(O[C@H]3CC[C@H](NC(=O)COC4CCC4)CC3)c2c(N)c1C(=O)O [Compound 309]	< 1.5	–
Cc1nc2cccc(O[C@H]3CC[C@H](NC(=O)COC4CCCC4)CC3)c2c(N)c1C(=O)O [Compound 310]	< 1.5	greater than 6%
Cc1nc2cccc(O[C@H]3CC[C@H](NC(=O)COC4CCCCC4)CC3)c2c(N)c1C(=O)O [Compound 311]	< 1.5	greater than 6%
Cc1nc2cccc(O[C@H]3CC[C@H](Nc4ncccn4)CC3)c2c(N)c1C(=O)O [Compound 700, 4-Amino-2-methyl-5-((trans-4-(pyrimidin-2-ylamino)cyclohexyl)oxy) quinolone-3-carboxylic acid]	< 1.5	–
